Results from patent publication US7906486B2, “Method of treating or preventing tissue deterioration, injury or damage due to disease of mucosa” (SciClone Pharmaceuticals, Inc., priority 2007, dated 2011).
Where “and” joins values, the source holds several entries; their conditions need not be identical. Identical values can stand only once. This continues a long series; more values of the same kind are listed elsewhere.

Test system: oral mucositis induced by acute radiation (40 Gy, left buccal cheek pouch)
Assay: Oral mucositis induced by acute radiation in hamsters, mucositis scoring (Example 2, SCI-02)
Type: in vivo, Syrian Golden Hamsters
Design: key: 0: Pouch completely healthy. No erythema or vasodilation.; 1: Light to severe erythema and vasodilation. No erosion of mucosa.; 2: Severe erythema and vasodilation. Erosion of superficial aspects of mucosa leaving denuded areas. Decreased stippling of mucosa.; 3: Formation of off-white ulcers in one or more places. Ulcers may have a yellow/gray due to pseudomembrane. Cumulative size of ulcers should equal about ¼ of the pouch. Severe erythema and vasodilation.; 4: Cumulative seize of ulcers should equal about ½ of the pouch. Loss of pliability. Severe erythema and vasodilation.; 5: Virtually all of pouch is ulcerated. Loss of pliability (pouch can only partially be extracted from mouth)
Settings: individual animals, two scores per animal
Text: The acute radiation model in hamsters, developed by the Principle Investigator, has proven to be an accurate, efficient and cost-effective technique to provide a preliminary evaluation of anti-mucositis compounds. The course of mucositis in this model is well defined and results in peak scores approximately 14-16 Days following radiation. The acute model has little systemic toxicity, resulting in few hamster deaths, thus permitting the use of smaller groups (N=7-8) for initial efficacy studies. It has also been used to study specific mechanistic elements in the pathogenesis of mucositis. Molecules that show efficacy in the acute radiation model may be further evaluated in the more complex models of fractionated radiation, chemotherapy, or concomitant therapy.
In this study, an acute radiation dose of 40 Gy on day 0 was administered. Clinically significant mucositis was observed on days 12 through 28.
Forty (40) Syrian Golden Hamsters were given an acute radiation dose of 40 Gy directed to their left buccal cheek pouch on day 0. Test material SCV-07 was given by sub-cutaneous injection at 100 μg/kg or 1 mg/kg once or twice daily. Dosing began one day before radiation (day −1) and continued until day 20. Mucositis was evaluated clinically starting on day 6, and continuing on alternate days until day 28.
The grade of mucositis was scored, beginning day 6, and for every second day thereafter, through and including day 28. The effect on mucositis of each drug treatment compared to placebo was assessed according to the following parameters:
On each evaluation day, the number of animals with a blinded mucositis score of ≧3 in each drug treatment group was compared to the control group. Differences were compared on a cumulative basis and statistical significance was determined by chi-square analysis. Efficacy, in this analysis, is defined by a significant reduction in the number of days that a group of animals had ulcerations (scores ≧3) when compared to the control group. This same test was also used to evaluate differences between different drug treatment groups.
For each evaluation day the scores of the control group were compared to those of the treated groups using non-parametric rank sum analysis. Treatment success was considered as a statistically significant lowering of scores in the treated group on 2 or more days from day 6 to day 28.
Forty Syrian Golden Hamsters were divided into five (5) groups of eight (8) animals each. All animals received a single dose of acute radiation of 40 Gy directed to their left buccal cheek pouch on day 0. This was accomplished by anesthetizing the animals and everting the left buccal pouch, while protecting the rest of the animals with a lead shield. Test materials were given by sub-cutaneous injection once daily as detailed in Table 5. Mucositis was evaluated clinically starting on Day 6, and continuing on alternate days until day 28.
Mucositis was induced using a standardized acute radiation protocol. A single dose of radiation (40 Gy/dose) was administered to all animals on day 0. Radiation was generated with a 160 kilovolt potential (15-ma) source at a focal distance of 30 cm, hardened with a 0.35 mm Cu filtration system. Irradiation targeted the left buccal pouch mucosa at a rate of 3.2 Gy/minute. Prior to irradiation, animals were anesthetized with an intraperitoneal injection of Ketamine (160 mg/kg) and Xylazine (8 mg/kg). The left buccal pouch was everted, fixed and isolated using a lead shield to protect all other parts of the hamster's body.
The mucositis score, weight change and survival were measured throughout the study as described above. For the evaluation of mucositis, the animals were anesthetized with an inhalation anesthetic, and the left pouch everted. Mucositis was scored visually by comparison to a validated photographic scale, ranging from 0 for normal, to 5 for severe ulceration (clinical scoring). In descriptive terms, this scale is defined as follows: […]

Q: Which results are given for `N[C@H](CCC(=O)N[C@@H](Cc1c[nH]c2ccccc12)C(=O)O)C(=O)O` [SCV-07, γ-D-glutamyl-L-tryptophan]?
A: Mucositis score (Group 2 (SCV-07 100 μg/kg once daily, days -1 to 20), day 12): 1; Mucositis score (Group 2 (SCV-07 100 μg/kg once daily, days -1 to 20), day 14): 1 and 3; Mucositis score (Group 2 (SCV-07 100 μg/kg once daily, days -1 to 20), day 16): 3; Mucositis score (Group 2 (SCV-07 100 μg/kg once daily, days -1 to 20), day 20): 1; Mucositis score (Group 3 (SCV-07 100 μg/kg twice daily, days -1 to 20), day 6): 0 (8×) and 1 (8×); Mucositis score (Group 3 (SCV-07 100 μg/kg twice daily, days -1 to 20), day 8): 1 (14×) and 0 (2×); Mucositis score (Group 3 (SCV-07 100 μg/kg twice daily, days -1 to 20), day 10): 2 (8×) and 1 (8×); Mucositis score (Group 3 (SCV-07 100 μg/kg twice daily, days -1 to 20), day 12): 2 (15×) and 1; Mucositis score (Group 3 (SCV-07 100 μg/kg twice daily, days -1 to 20), day 14): 2 (8×) and 3 (8×); Mucositis score (Group 3 (SCV-07 100 μg/kg twice daily, days -1 to 20), day 16): 3 (9×) and 1 and 2 (6×); Mucositis score (Group 3 (SCV-07 100 μg/kg twice daily, days -1 to 20), day 18): 2 (14×) and 3 and 1; Mucositis score (Group 3 (SCV-07 100 μg/kg twice daily, days -1 to 20), day 20): 2 (14×) and 1 (2×); Mucositis score (Group 3 (SCV-07 100 μg/kg twice daily, days -1 to 20), day 22): 1 (3×) and 2 (13×); Mucositis score (Group 3 (SCV-07 100 μg/kg twice daily, days -1 to 20), day 24): 2 (15×) and 1; Mucositis score (Group 3 (SCV-07 100 μg/kg twice daily, days -1 to 20), day 26): 2 (14×) and 1 (2×); Mucositis score (Group 3 (SCV-07 100 μg/kg twice daily, days -1 to 20), day 28): 1 (10×) and 2 (6×); Mucositis score (Group 4 (SCV-07 1 mg/kg once daily, days -1 to 20), day 6, 1 mg/kg): 1 (10×) and 0 (6×); Mucositis score (Group 4 (SCV-07 1 mg/kg once daily, days -1 to 20), day 8): 1; Mucositis score (Group 4 (SCV-07 1 mg/kg once daily, days -1 to 20), day 10, 1 mg/kg): 2 (8×) and 1 (8×); Mucositis score (Group 4 (SCV-07 1 mg/kg once daily, days -1 to 20), day 12): 2; Mucositis score (Group 4 (SCV-07 1 mg/kg once daily, days -1 to 20), day 14, 1 mg/kg): 3 (14×) and 2 (2×); Mucositis score (Group 4 (SCV-07 1 mg/kg once daily, days -1 to 20), day 16, 1 mg/kg): 3 (12×) and 2 (4×); Mucositis score (Group 4 (SCV-07 1 mg/kg once daily, days -1 to 20), day 18, 1 mg/kg): 3 (10×) and 2 (6×); Mucositis score (Group 4 (SCV-07 1 mg/kg once daily, days -1 to 20), day 20, 1 mg/kg): 3 (7×) and 2 (8×) and 1; Mucositis score (Group 4 (SCV-07 1 mg/kg once daily, days -1 to 20), day 22, 1 mg/kg): 3 (5×) and 2 (10×) and 1; Mucositis score (Group 4 (SCV-07 1 mg/kg once daily, days -1 to 20), day 24, 1 mg/kg): 3 (5×) and 2 (10×) and 1; Mucositis score (Group 4 (SCV-07 1 mg/kg once daily, days -1 to 20), day 26, 1 mg/kg): 3 and 2 (14×) and 1; Mucositis score (Group 4 (SCV-07 1 mg/kg once daily, days -1 to 20), day 28, 1 mg/kg): 3 and 1 (8×) and 2 (7×); Mucositis score (Group 5 (SCV-07 1 mg/kg twice daily, days -1 to 20), day 6, 1 mg/kg): 1 (12×) and 0 (4×); Mucositis score (Group 5 (SCV-07 1 mg/kg twice daily, days -1 to 20), day 8): 1; Mucositis score (Group 5 (SCV-07 1 mg/kg twice daily, days -1 to 20), day 10, 1 mg/kg): 2 (8×) and 1 (8×); Mucositis score (Group 5 (SCV-07 1 mg/kg twice daily, days -1 to 20), day 12, 1 mg/kg): 2 (14×) and 3 (2×); Mucositis score (Group 5 (SCV-07 1 mg/kg twice daily, days -1 to 20), day 14, 1 mg/kg): 2 (6×) and 3 (10×); Mucositis score (Group 5 (SCV-07 1 mg/kg twice daily, days -1 to 20), day 16, 1 mg/kg): 2 (10×) and 3 (6×); Mucositis score (Group 5 (SCV-07 1 mg/kg twice daily, days -1 to 20), day 18, 1 mg/kg): 2 (10×) and 3 (6×); Mucositis score (Group 5 (SCV-07 1 mg/kg twice daily, days -1 to 20), day 20): 2; Mucositis score (Group 5 (SCV-07 1 mg/kg twice daily, days -1 to 20), day 22, 1 mg/kg): 2 (15×) and 1; Mucositis score (Group 5 (SCV-07 1 mg/kg twice daily, days -1 to 20), day 24): 2; Mucositis score (Group 5 (SCV-07 1 mg/kg twice daily, days -1 to 20), day 26): 2; Mucositis score (Group 5 (SCV-07 1 mg/kg twice daily, days -1 to 20), day 28, 1 mg/kg): 2 (7×) and 1 (9×)
